Data reported in patent US20050009137A1 (CEDARS SINAI MEDICAL CENTER, published 2005).
Results are given in words; binding and its absence hold for the method and conditions named. Some results given as binding are weak or reduced against the parent protein; the word gives no strength.

Protein sequences, listed by entry. Tags and fused reporters are not part of them. Lines headed by an entry give the natural chain unless they say otherwise; changes in a name come on top.
UniProt P04386: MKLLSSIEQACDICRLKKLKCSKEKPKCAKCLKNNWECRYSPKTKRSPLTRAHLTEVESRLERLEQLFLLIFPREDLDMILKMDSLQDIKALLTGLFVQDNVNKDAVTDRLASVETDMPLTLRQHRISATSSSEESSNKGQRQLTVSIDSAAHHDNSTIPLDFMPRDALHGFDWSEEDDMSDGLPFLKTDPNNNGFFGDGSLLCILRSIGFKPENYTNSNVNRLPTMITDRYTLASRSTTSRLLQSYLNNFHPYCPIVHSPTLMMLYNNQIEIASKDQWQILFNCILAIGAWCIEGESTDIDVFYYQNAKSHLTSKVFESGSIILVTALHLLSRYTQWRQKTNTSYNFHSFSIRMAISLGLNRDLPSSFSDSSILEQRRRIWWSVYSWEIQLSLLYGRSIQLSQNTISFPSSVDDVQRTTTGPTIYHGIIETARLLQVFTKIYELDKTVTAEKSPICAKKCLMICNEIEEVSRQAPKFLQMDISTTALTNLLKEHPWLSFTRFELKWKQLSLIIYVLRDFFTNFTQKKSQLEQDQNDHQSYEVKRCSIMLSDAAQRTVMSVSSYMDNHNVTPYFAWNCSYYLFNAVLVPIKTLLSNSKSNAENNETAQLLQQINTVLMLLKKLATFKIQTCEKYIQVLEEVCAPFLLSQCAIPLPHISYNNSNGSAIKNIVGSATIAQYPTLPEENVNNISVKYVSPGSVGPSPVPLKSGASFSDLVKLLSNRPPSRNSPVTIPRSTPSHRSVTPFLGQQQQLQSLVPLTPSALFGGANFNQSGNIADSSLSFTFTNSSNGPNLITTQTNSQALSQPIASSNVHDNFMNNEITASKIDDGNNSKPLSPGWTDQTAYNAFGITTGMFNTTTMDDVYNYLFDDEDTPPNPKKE
UniProt P04792: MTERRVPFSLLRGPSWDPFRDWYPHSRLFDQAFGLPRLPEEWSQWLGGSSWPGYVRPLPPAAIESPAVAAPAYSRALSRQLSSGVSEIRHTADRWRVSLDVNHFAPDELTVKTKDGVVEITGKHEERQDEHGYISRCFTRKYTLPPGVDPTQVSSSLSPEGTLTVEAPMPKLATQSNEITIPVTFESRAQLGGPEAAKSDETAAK

Key:
[1] = biological target: GAL4 DNA binding domain-ERα fusion protein (GAL4 DNA-BD/ER) (UniProt P04386); assay: yeast two-hybrid (FIG. 6B)
[2] = biological target: GAL4 DNA binding domain-ERα fusion protein (GAL4 DNA-BD/ER) (UniProt P04386); assay: yeast two-hybrid in AH109 yeast, growth selection with E2, tamoxifen or vehicle (FIG. 6B)

**Q.** With “GAL4 DNA activation domain-hsp27 fusion (GAL4 DNA-AD/hsp27) (from UniProt P04792 1-205)” as the substance, how does the binding [1] read?
**A.** The binding was “binds”.

**Q.** What about the binding [2] of the same substance?
**A.** Its binding is “binds”.
